Paper PMC11101406

The chains behind the UniProt entries cited, without tags or fusion partners. Where a name states a change or a piece, a line headed by the entry shows the natural chain unless it says otherwise. A line that says so, or that is headed by a name, gives the form on record, which may keep a tag or linker. Residues count along the entry.
UniProt P28023: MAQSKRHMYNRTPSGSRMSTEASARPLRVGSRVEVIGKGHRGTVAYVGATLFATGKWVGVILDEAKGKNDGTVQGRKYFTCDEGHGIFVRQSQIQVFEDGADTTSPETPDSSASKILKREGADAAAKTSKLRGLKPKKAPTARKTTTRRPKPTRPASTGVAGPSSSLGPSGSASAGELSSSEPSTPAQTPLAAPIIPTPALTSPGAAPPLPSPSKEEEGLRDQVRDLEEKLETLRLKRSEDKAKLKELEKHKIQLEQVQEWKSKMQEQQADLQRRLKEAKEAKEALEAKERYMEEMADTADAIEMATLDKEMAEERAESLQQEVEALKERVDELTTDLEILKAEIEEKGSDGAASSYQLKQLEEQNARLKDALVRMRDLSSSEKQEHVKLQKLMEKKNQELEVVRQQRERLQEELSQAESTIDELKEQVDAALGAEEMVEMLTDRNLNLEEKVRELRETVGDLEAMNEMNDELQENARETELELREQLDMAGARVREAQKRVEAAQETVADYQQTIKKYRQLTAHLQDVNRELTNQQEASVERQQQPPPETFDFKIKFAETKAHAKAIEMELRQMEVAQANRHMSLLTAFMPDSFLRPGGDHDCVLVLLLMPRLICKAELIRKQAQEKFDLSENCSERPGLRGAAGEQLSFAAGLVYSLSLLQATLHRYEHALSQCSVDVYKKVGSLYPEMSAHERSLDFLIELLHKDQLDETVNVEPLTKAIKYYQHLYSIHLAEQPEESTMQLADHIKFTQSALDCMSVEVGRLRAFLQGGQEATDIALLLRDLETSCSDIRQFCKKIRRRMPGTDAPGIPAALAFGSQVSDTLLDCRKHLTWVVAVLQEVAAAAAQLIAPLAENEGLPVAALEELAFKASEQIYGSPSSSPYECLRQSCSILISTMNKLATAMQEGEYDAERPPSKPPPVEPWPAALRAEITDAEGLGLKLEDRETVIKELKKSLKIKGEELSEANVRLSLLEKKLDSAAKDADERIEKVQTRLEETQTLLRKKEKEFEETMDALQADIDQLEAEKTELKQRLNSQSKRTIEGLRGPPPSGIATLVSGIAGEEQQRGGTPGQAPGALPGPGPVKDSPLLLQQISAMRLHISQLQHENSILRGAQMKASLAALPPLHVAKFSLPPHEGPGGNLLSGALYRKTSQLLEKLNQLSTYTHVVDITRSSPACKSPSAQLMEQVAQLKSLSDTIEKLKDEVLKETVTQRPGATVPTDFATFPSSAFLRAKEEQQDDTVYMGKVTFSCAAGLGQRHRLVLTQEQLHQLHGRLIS
AviHA-tagged p150^Glued N fragment: residues 1-490 of P28023
GST-p150^Glued C: residues 490-1280 of P28023
GST-p150^Glued C2: residues 1049-1280 of P28023
UniProt P63010: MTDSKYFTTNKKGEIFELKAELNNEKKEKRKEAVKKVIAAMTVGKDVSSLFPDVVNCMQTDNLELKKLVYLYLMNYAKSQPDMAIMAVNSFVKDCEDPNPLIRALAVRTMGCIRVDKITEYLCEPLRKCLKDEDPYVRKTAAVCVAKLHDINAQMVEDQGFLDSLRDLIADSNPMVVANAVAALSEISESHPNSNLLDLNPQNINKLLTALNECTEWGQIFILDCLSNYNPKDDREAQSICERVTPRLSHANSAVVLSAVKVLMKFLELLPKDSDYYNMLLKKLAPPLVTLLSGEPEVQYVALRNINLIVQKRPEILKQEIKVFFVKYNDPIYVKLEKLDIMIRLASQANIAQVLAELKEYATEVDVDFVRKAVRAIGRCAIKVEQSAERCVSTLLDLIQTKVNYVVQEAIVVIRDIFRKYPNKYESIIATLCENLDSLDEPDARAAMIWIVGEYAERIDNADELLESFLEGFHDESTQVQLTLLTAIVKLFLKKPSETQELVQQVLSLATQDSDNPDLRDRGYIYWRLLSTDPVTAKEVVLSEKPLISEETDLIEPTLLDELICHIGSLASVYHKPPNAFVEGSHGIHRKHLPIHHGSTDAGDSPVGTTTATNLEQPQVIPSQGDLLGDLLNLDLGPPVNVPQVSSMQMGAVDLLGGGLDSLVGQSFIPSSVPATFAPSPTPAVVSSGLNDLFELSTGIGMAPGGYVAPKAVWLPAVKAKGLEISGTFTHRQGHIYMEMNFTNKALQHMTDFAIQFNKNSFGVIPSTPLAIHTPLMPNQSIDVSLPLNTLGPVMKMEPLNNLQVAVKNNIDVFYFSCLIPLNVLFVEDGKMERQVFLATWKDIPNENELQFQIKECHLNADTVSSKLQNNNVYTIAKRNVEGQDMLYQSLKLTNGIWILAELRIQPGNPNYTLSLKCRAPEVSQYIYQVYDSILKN

Key:
[1] = target: GST-p150^Glued C2 (UniProt P28023); assay: pull-down; pull down of E. coli-purified recombinant GST fusions with recombinant His-AP-2β ear; Western blot; both purified
[2] = target: GST-p150^Glued C (UniProt P28023); assay: as above
[3] = target: AviHA-tagged p150^Glued N fragment (1-490 aa) (UniProt P28023); assay: pull-down; Avi-tag pull down: in vivo biotinylated Avi-tagged baits pulled down from HEK293T cells, E. coli-produced His-AP-2β ear added; Western blot

Measured: binding

His-AP-2β ear (His6-AP-2β appendage domain) (from UniProt P63010) (domain or fragment)
no binding: all assays above

These are yes or no findings as the source states them, for the method shown. For part of these data: In cells and extracts the contact can be indirect.
